No constants are given. Whether binding was seen depends on the method and setting. Binding seen in cells or lysates may run through a third protein. Here binding means that the protein was enriched with, or labelled near, the bait; the list need not be complete. Where a sequence is shown, tags or fusion partners need not be part of it.
T1: Flag-TSC-22 (full-length human TSC-22 (TSC22D1-2) fused with Flag) (human) (UniProt Q15714)
T1 sequence: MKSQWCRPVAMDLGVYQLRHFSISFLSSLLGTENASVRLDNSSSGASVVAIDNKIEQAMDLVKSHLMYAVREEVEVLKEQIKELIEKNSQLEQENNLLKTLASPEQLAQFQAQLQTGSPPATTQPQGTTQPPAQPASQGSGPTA

Sequences of proteins named here, by UniProt entry; tags and fusion partners are left off. Residues count along the entry.
UniProt P16403: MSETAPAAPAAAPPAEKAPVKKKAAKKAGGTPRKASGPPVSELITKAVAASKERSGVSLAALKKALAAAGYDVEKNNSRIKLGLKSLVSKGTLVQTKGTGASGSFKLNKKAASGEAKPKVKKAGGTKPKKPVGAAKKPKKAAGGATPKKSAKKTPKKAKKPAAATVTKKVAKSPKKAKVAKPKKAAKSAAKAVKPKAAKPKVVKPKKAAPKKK
UniProt P20700: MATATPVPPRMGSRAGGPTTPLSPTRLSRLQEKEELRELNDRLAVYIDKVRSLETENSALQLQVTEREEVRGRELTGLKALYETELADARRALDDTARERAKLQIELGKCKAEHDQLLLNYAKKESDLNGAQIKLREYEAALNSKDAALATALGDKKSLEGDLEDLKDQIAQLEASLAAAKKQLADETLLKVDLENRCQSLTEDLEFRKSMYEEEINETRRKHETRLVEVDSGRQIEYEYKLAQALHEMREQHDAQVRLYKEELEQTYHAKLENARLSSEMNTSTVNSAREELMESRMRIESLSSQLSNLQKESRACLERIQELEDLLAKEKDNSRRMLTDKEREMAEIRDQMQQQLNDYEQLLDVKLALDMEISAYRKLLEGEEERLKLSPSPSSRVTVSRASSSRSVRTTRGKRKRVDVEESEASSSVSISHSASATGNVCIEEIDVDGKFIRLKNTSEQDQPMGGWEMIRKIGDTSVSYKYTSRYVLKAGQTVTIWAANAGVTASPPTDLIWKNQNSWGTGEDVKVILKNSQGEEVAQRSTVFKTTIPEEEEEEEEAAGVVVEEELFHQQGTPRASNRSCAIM
UniProt P41586, residues 21-468: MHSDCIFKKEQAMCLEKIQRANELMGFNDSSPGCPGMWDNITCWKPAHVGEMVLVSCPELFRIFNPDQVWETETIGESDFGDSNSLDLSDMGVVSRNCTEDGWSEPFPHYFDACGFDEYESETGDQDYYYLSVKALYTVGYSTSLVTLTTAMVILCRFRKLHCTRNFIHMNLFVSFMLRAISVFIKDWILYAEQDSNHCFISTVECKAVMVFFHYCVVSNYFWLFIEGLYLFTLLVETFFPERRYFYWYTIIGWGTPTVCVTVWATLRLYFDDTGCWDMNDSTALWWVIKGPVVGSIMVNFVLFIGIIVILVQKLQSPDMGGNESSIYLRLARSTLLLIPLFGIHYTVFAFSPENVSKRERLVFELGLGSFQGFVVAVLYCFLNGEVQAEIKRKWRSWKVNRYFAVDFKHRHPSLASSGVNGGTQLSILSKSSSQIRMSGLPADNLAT
UniProt P26641: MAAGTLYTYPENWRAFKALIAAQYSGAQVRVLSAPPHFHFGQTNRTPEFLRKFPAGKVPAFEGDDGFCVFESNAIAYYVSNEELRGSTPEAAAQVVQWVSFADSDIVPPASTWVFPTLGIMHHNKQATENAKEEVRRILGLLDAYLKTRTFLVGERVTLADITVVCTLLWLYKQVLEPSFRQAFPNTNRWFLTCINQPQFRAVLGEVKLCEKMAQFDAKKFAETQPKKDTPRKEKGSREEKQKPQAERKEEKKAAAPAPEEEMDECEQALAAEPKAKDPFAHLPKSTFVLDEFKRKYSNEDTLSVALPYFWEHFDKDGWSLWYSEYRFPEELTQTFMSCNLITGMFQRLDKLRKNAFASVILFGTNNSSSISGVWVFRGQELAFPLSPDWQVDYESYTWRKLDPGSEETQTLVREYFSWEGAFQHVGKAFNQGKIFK
UniProt P04264: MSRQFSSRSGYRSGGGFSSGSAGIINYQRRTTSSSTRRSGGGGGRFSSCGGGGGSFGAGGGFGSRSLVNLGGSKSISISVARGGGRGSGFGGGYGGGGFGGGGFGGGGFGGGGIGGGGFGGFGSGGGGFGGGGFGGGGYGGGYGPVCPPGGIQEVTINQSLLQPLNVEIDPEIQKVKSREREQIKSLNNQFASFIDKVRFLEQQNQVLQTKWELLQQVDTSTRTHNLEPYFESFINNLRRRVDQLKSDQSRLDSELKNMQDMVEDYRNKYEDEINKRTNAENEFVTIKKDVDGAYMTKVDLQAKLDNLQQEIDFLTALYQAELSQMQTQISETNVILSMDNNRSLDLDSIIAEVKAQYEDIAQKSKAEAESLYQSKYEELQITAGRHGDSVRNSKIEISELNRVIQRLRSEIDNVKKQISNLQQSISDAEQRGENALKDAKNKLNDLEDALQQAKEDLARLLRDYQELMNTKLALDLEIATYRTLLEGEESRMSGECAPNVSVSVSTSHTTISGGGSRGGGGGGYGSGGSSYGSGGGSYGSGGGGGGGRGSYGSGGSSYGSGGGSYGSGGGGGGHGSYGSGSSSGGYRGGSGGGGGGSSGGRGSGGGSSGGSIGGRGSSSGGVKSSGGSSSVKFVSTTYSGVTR

T2: GST-TSC-22 (glutathione S-transferase fused to full-length human TSC-22 (TSC22D1-2)) (human) (UniProt Q15714)
T2 sequence: T1 sequence

B1: Charged multivesicular body protein 4a (protein, UniProt Q9BY43 1-222)
chain: MSGLGRLFGKGKKEKGPTPEEAIQKLKETEKILIKKQEFLEQKIQQELQTAKKYGTKNKRAALQALRRKKRFEQQLAQTDGTLSTLEFQREAIENATTNAEVLRTMELAAQSMKKAYQDMDIDKVDELMTDITEQQEVAQQISDAISRPMGFGDDVDEDELLEELEELEQEELAQELLNVGDKEEEPSVKLPSVPSTHLPAGPAPKVDEDEEALKQLAEWVS
B2: rRNA 2′-O-methyltransferase fibrillarin (enzyme, UniProt P22087 1-321)
chain: MKPGFSPRGGGFGGRGGFGDRGGRGGRGGFGGGRGRGGGFRGRGRGGGGGGGGGGGGGRGGGGFHSGGNRGRGRGGKRGNQSGKNVMVEPHRHEGVFICRGKEDALVTKNLVPGESVYGEKRVSISEGDDKIEYRAWNPFRSKLAAAILGGVDQIHIKPGAKVLYLGAASGTTVSHVSDIVGPDGLVYAVEFSHRSGRDLINLAKKRTNIIPVIEDARHPHKYRMLIAMVDVIFADVAQPDQTRIVALNAHTFLRNGGHFVISIKANCIDSTASAEAVFASEVKKMQQENMKPQEQLTLEPYERDHAVVVGVYRPPPKVKN
B3: Carbonyl reductase [NADPH] 1 (enzyme, UniProt P16152 1-277)
chain: MSSGIHVALVTGGNKGIGLAIVRDLCRLFSGDVVLTARDVTRGQAAVQQLQAEGLSPRFHQLDIDDLQSIRALRDFLRKEYGGLDVLVNNAGIAFKVADPTPFHIQAEVTMKTNFFGTRDVCTELLPLIKPQGRVVNVSSIMSVRALKSCSPELQQKFRSETITEEELVGLMNKFVEDTKKGVHQKEGWPSSAYGVTKIGVTVLSRIHARKLSEQRKGDKILLNACCPGWVRTDMAGPKATKSPEEGAETPVYLALLPPDAEGPHGQFVSEKRVEQW
B4: Pleckstrin homology domain-containing family G member 2 (protein, UniProt Q9H7P9 1-1386)
chain: MPEGAQGLSLSKPSPSLGCGRRGEVCDCGTVCETRTAPAAPTMASPRGSGSSTSLSTVGSEGDPAPGPTPACSASRPEPLPGPPIRLHLSPVGIPGSARPSRLERVAREIVETERAYVRDLRSIVEDYLGPLLDGGVLGLSVEQVGTLFANIEDIYEFSSELLEDLENSSSAGGIAECFVQRSEDFDIYTLYCMNYPSSLALLRELSLSPPAALWLQERQAQLRHSLPLQSFLLKPVQRILKYHLLLQELGKHWAEGPGTGGREMVEEAIVSMTAVAWYINDMKRKQEHAARLQEVQRRLGGWTGPELSAFGELVLEGAFRGGGGGGPRLRGGERLLFLFSRMLLVAKRRGLEYTYKGHIFCCNLSVSESPRDPLGFKVSDLTIPKHRHLLQAKNQEEKRLWIHCLQRLFFENHPASIPAKAKQVLLENSLHCAPKSKPVLEPLTPPLGSPRPRDARSFTPGRRNTAPSPGPSVIRRGRRQSEPVKDPYVMFPQNAKPGFKHAGSEGELYPPESQPPVSGSAPPEDLEDAGPPTLDPSGTSITEEILELLNQRGLRDPGPSTHDIPKFPGDSQVPGDSETLTFQALPSRDSSEEEEEEEEGLEMDERGPSPLHVLEGLESSIAAEMPSIPCLTKIPDVPNLPEIPSRCEIPEGSRLPSLSDISDVFEMPCLPAIPSVPNTPSLSSTPTLSCDSWLQGPLQEPAEAPATRRELFSGSNPGKLGEPPSGGKAGPEEDEEGVSFTDFQPQDVTQHQGFPDELAFRSCSEIRSAWQALEQGQLARPGFPEPLLILEDSDLGGDSGSGKAGAPSSERTASRVRELARLYSERIQQMQRAETRASANAPRRRPRVLAQPQPSPCLPQEQAEPGLLPAFGHVLVCELAFPLTCAQESVPLGPAVWVQAAIPLSKQGGSPDGQGLHVSNLPKQDLPGIHVSAATLLPEQGGSRHVQAPAATPLPKQEGPLHLQVPALTTFSDQGHPEIQVPATTPLPEHRSHMVIPAPSTAFCPEQGHCADIHVPTTPALPKEICSDFTVSVTTPVPKQEGHLDSESPTNIPLTKQGGSRDVQGPDPVCSQPIQPLSWHGSSLDPQGPGDTLPPLPCHLPDLQIPGTSPLPAHGSHLDHRIPANAPLSLSQELPDTQVPATTPLPLPQVLTDIWVQALPTSPKQGSLPDIQGPAAAPPLPEPSLTDTQVQKLTPSLEQKSLIDAHVPAATPLPERGGSLDIQGLSPTPVQTTMVLSKPGGSLASHVARLESSDLTPPHSPPPSSRQLLGPNAAALSRYLAASYISQSLARRQGPGGGAPAASRGSWSSAPTSRASSPPPQPQPPPPPARRLSYATTVNIHVGGGGRLRPAKAQVRLNHPALLASTQESMGLHRAQGAPDAPFHM
B5: Rho-related GTP-binding protein Rho6 (protein, UniProt Q92730 1-232)
chain: MKERRAPQPVVARCKLVLVGDVQCGKTAMLQVLAKDCYPETYVPTVFENYTACLETEEQRVELSLWDTSGSPYYDNVRPLCYSDSDAVLLCFDISRPETVDSALKKWRTEILDYCPSTRVLLIGCKTDLRTDLSTLMELSHQKQAPISYEQGCAIAKQLGAEIYLEGSAFTSEKSIHSIFRTASMLCLNKPSPLPQKSPVRSLSKRLLHLPSRSELISSTFKKEKAKSCSIM
B6: Ubiquitin carboxyl-terminal hydrolase 47 (enzyme, UniProt Q96K76 1-1375)
chain: MVPGEENQLVPKEDVFWRCRQNIFDEMKKKFLQIENAAEEPRVLCIIQDTTNSKTVNERITLNLPASTPVRKLFEDVANKVGYINGTFDLVWGNGINTADMAPLDHTSDKSLLDANFEPGKKNFLHLTDKDGEQPQILLEDSSAGEDSVHDRFIGPLPREGSGGSTSDYVSQSYSYSSILNKSETGYVGLVNQAMTCYLNSLLQTLFMTPEFRNALYKWEFEESEEDPVTSIPYQLQRLFVLLQTSKKRAIETTDVTRSFGWDSSEAWQQHDVQELCRVMFDALEQKWKQTEQADLINELYQGKLKDYVRCLECGYEGWRIDTYLDIPLVIRPYGSSQAFASVEEALHAFIQPEILDGPNQYFCERCKKKCDARKGLRFLHFPYLLTLQLKRFDFDYTTMHRIKLNDRMTFPEELDMSTFIDVEDEKSPQTESCTDSGAENEGSCHSDQMSNDFSNDDGVDEGICLETNSGTEKISKSGLEKNSLIYELFSVMVHSGSAAGGHYYACIKSFSDEQWYSFNDQHVSRITQEDIKKTHGGSSGSRGYYSSAFASSTNAYMLIYRLKDPARNAKFLEVDEYPEHIKNLVQKERELEEQEKRQREIERNTCKIKLFCLHPTKQVMMENKLEVHKDKTLKEAVEMAYKMMDLEEVIPLDCCRLVKYDEFHDYLERSYEGEEDTPMGLLLGGVKSTYMFDLLLETRKPDQVFQSYKPGEVMVKVHVVDLKAESVAAPITVRAYLNQTVTEFKQLISKAIHLPAETMRIVLERCYNDLRLLSVSSKTLKAEGFFRSNKVFVESSETLDYQMAFADSHLWKLLDRHANTIRLFVLLPEQSPVSYSKRTAYQKAGGDSGNVDDDCERVKGPVGSLKSVEAILEESTEKLKSLSLQQQQDGDNGDSSKSTETSDFENIESPLNERDSSASVDNRELEQHIQTSDPENFQSEERSDSDVNNDRSTSSVDSDILSSSHSSDTLCNADNAQIPLANGLDSHSITSSRRTKANEGKKETWDTAEEDSGTDSEYDESGKSRGEMQYMYFKAEPYAADEGSGEGHKWLMVHVDKRITLAAFKQHLEPFVGVLSSHFKVFRVYASNQEFESVRLNETLSSFSDDNKITIRLGRALKKGEYRVKVYQLLVNEQEPCKFLLDAVFAKGMTVRQSKEELIPQLREQCGLELSIDRFRLRKKTWKNPGTVFLDYHIYEEDINISSNWEVFLEVLDGVEKMKSMSQLAVLSRRWKPSEMKLDPFQEVVLESSSVDELREKLSEISGIPLDDIEFAKGRGTFPCDISVLDIHQDLDWNPKVSTLNVWPLYICDDGAVIFYRDKTEELMELTDEQRNELMKKESSRLQKTGHRVTYSPRKEKALKIYLDGAPNKDLTQD
B7: Keratin, type I cytoskeletal 9 (protein, UniProt P35527 1-623)
chain: MSCRQFSSSYLSRSGGGGGGGLGSGGSIRSSYSRFSSSGGGGGGGRFSSSSGYGGGSSRVCGRGGGGSFGYSYGGGSGGGFSASSLGGGFGGGSRGFGGASGGGYSSSGGFGGGFGGGSGGGFGGGYGSGFGGFGGFGGGAGGGDGGILTANEKSTMQELNSRLASYLDKVQALEEANNDLENKIQDWYDKKGPAAIQKNYSPYYNTIDDLKDQIVDLTVGNNKTLLDIDNTRMTLDDFRIKFEMEQNLRQGVDADINGLRQVLDNLTMEKSDLEMQYETLQEELMALKKNHKEEMSQLTGQNSGDVNVEINVAPGKDLTKTLNDMRQEYEQLIAKNRKDIENQYETQITQIEHEVSSSGQEVQSSAKEVTQLRHGVQELEIELQSQLSKKAALEKSLEDTKNRYCGQLQMIQEQISNLEAQITDVRQEIECQNQEYSLLLSIKMRLEKEIETYHNLLEGGQEDFESSGAGKIGLGGRGGSGGSYGRGSRGGSGGSYGGGGSGGGYGGGSGSRGGSGGSYGGGSGSGGGSGGGYGGGSGGGHSGGSGGGHSGGSGGNYGGGSGSGGGSGGGYGGGSGSRGGSGGSHGGGSGFGGESGGSYGGGEEASGSGGGYGGGSGKSSHS
B8: Histone H1t (protein, UniProt P22492 1-207)
chain: MSETVPAASASAGVAAMEKLPTKKRGRKPAGLISASRKVPNLSVSKLITEALSVSQERVGMSLVALKKALAAAGYDVEKNNSRIKLSLKSLVNKGILVQTRGTGASGSFKLSKKVIPKSTRSKAKKSVSAKTKKLVLSRDSKSPKTAKTNKRAKKPRATTPKTVRSGRKAKGAKGKQQQKSPVKARASKSKLTQHHEVNVRKATSKK
B9: Dermcidin (protein, UniProt P81605 20-110)
chain: YDPEAASAPGSGNPCHEASAAQKENAGEDPGLARQAPKPRKQRSSLLEKGLDGAKKAVGGLGKLGKDAVEDLESVGKGAVHDVKDVLDSVL

These molecules were tested against T1, Flag-TSC-22 (full-length human TSC-22 (TSC22D1-2) fused with Flag) (human) (assay: affinity purification with mass spectrometry; anti-FLAG M2-Agarose precipitation of Flag-TSC-22 from the nuclear fraction of Flp-In T-REx 293 cells, with or without 0.5 mM phleomycin for 12 h (binding proteins found after DNA damage); washed with 50 mM HEPES pH 7.5, 150 mM NaCl, 0.1% NP-40; SDS-PAGE, silver stain, bands cut out for MS).
In the case of “Histone H1.2 (from UniProt P16403 1-213)”, the binding is reported as “binds”. With Lamin-B1 (from UniProt P20700 1-586) the binding was “binds”. In the case of “Pituitary adenylate cyclase-activating polypeptide type I receptor (from UniProt P41586 21-468)”, the binding is reported as “binds”. With B1 the binding was “binds”. In the case of B2, the binding is reported as “binds”.

Each molecule was assayed against T2, GST-TSC-22 (glutathione S-transferase fused to full-length human TSC-22 (TSC22D1-2)) (human) (assay: affinity purification with mass spectrometry; GST-TSC-22 on Glutathione Sepharose 4B beads incubated with TYS whole cell extract at 4 °C for 6-12 h; washed with 50 mM HEPES pH 7.2, 150 mM NaCl, 0.2% NP-40; eluted with 1.2 M NaCl; SDS-PAGE, silver stain, bands cut out for nanoLC/MS/MS; only the target purified).
“Elongation factor 1-gamma (from UniProt P26641 1-437)” was tested, and the binding was “binds”. For “Keratin, type II cytoskeletal 1 (from TYS cells) (from UniProt P04264 1-644)”, the binding was “binds”. B3 was tested, and the binding was “binds”. With B4 the binding was “binds”. B5 was tested, and the binding was “binds”.

These molecules were tested against Flag-TSC22(86) (TSC22D1-3 fused with Flag) (human) (assay: affinity purification with mass spectrometry; anti-FLAG M2-Agarose precipitation of Flag-TSC22(86) from whole cell extract of Flp-In T-REx 293 cells after 0.5 mM phleomycin for 12 h; washed with 50 mM HEPES pH 7.5, 150 mM NaCl, 0.1% NP-40; SDS-PAGE, silver stain, bands cut out for MS).
In the case of B6, the binding is reported as “binds”. For B7, the binding was “binds”. For B8, the binding was “binds”. For B9, the binding was “binds”.

Reference: paper PMC8536140
